Laboratory results reported in patent publication US20250099539A1, “METHODS AND COMPOSITIONS FOR REGENERATING HAIR CELLS AND/OR SUPPORTING CELLS” (priority 2012, published 2025).
For at least one compound, name, drawing or mass did not settle the structure.

How the values were obtained:
[1] = test system: cochlear supporting cells, inner and outer hair cells; assay: Doxycycline induction of c-Myc and NICD by osmotic pump in rtTa/tet-on-Myc/tet-on-NICD mice, EdU labeling; assay type: in vivo, mouse
cochlear support cells = assay: Proliferation and transdifferentiation of supporting cells in cultured adult rTta/Tet-on-Myc/Tet-on-NICD mouse cochlea; assay type: cell-based; details: doxycycline 1 mg/ml for 5 days

C[C@H]1c2cccc(O)c2C(=O)C2=C(O)[C@]3(O)C(=O)C(C(N)=O)=C(O)[C@@H](N(C)C)[C@@H]3[C@@H](O)[C@@H]21 [doxycycline]
division of Parv+ inner hair cells (EdU) ([1]; doxycycline 9 days): did not appear to divide
proliferation of Sox2+ supporting cells (EdU) ([1]; doxycycline 9 days, outer hair cells lost by surgery): proliferation of Sox2+ supporting cells
proliferation of inner hair cells (EdU) ([1]; doxycycline 12 days): No cell proliferation was observed in inner hair cells
proliferation of outer hair cells (EdU+/Esp+) ([1]; doxycycline 12 days): EdU+/Esp+ proliferating outer hair cells were observed
EdU labeling of supporting cells ([1]; doxycycline 12 days, data not shown): fewer supporting cells (compared to outer hair cells) labeled with EdU
proliferation of support cells (EdU labeling) (cochlear support cells): undergo cell proliferation
